Experimental data as given in PubChem BioAssay AID1347423 (Functional Genomics Laboratory (NCATS/FGL), 2020).
In all, about 52,000 sequences went through this assay and about 210 (0.4%) were called active.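 How the source made its calls: active means gene whose silencing raises cell survival under the drug, median off-target-corrected z-score across its silencing RNAs 2 or more; inactive means the rest.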 Some of the results follow.

Test: Resistance to Poly (ADP-Ribose) Polymerase inhibitor: Gene Identification via Genome-wide siRNA Screen
Conditions: mouse BRCA2 R2336H ES cells, olaparib, CellTiter-Glo viability; hits give high values
Procedure, shortened: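 Genome-wide siRNA screen (3 siRNAs/gene, 20 nM) in mouse ES cells carrying hypomorphic BRCA2 R2336H; olaparib 500 nM added 48 h post-transfection, CellTiter-Glo viability 72 h later. Normalized to plate-median negative control; MAD z-scores, gene median, seed-adjusted.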

| Sequence | z-score |
| --- | --- |
| CGACACCUAAGUUCAGCACTT against Smcr7 | inactive: 0.564 |
| GGUAGACAGAGAAGAUAAATT against Slc35f5 | inactive: 1.96 |
| CCUUCAGGGUGCUUCUCUATT against Mrgpra6 | inactive: -2.59 |
| GCUAUAACCUCACCGAGAATT against 1600002H07Rik | inactive: 1.54 |
| GCAUUGACAAGAUAUCUAATT against 2210412D01Rik | inactive: 0.303 |
| GGAAGAACGAAAAUAUCUGTT against 4921536I21Rik | inactive: -0.595 |
| GCUCCAUUUGAGGAACAAGTT against Zfp277 | inactive: -0.689 |
| GGAAGAACUUCAGAAUGCATT against 1810035L17Rik | inactive: -0.717 |
| GGGAAAGUCGUUGAAAUUUTT against Stx18 | inactive: -0.33 |
| GGAACGGAUACGGUUUCAUTT against Nsep1 | inactive: 0.466 |
| GGAAGUGUUCAAACCAGAGTT against LOC229512 | inactive: -1.89 |
| GGAGUUUGGAACUUCCAACTT against Tcf21 | inactive: -0.297 |
| GGCUCACGAGGAACUAAAUTT against BC037708 | inactive: 0.19 |
| GCCAUUCGAGUUUUAUAUGTT against C330026N02Rik | inactive: -0.366 |
| GCACUAAAGAAGUUACUGCTT against Olfr126 | inactive: 0.647 |
| GGAAACACCAGGUUUAUAUTT against 2610511O17Rik | inactive: -0.781 |
| GGAUUUAGCUAAGAGAGGGTT against Wig1 | inactive: 0.823 |
| GAAUUGGACAACUUUCUCCTT against Olfr8 | inactive: 1.52 |
| CCGCUAACUAAAAAAAUCGTT against Birc4 | inactive: 0.739 |
| GCGUAUGACAUAAAGAUAGTT against Ctbs | inactive: 1.77 |
| GGCCAAAACCACAAAGAAGTT against Rpl36al | inactive: -0.0808 |
| GGAUUAACUCUUGAAAGUUTT against Cd4 | inactive: 0.647 |

Another view of part of the listing above:
Sequence | z-score
GCAUUGACAAGAUAUCUAATT against 2210412D01Rik | inactive: 0.303
GGAAACACCAGGUUUAUAUTT against 2610511O17Rik | inactive: -0.781

Later entries

| Sequence | z-score |
| --- | --- |
| GCCGCCAAGUUUCGAUUCGTT against Htr5b | inactive: 0.863 |
| GGCCUCCAAUAAAGCUCAGTT against AI428795 | inactive: 1.16 |
| GCUGAAUGAUAUGGAACCUTT against Vapa | inactive: -2.62 |
| GGUUUGGUACAUUUGCAUCTT against Olfr616 | inactive: 0.404 |
| GCCUACUUGUGUAUAAAGATT against D15Wsu169e | inactive: -0.309 |
| GCAGGGUGAGUUGUUAAAUTT against 9630025C22 | inactive: 1.09 |
| GGCUGCACACAAUAUGAACTT against Ftsj2 | inactive: 0.739 |
| GCCAGAUUGUGGUCAUGACTT against Olfr365 | inactive: -0.91 |
| CCUCUCUAUCUCUGACAUGTT against Olfr960 | inactive: -1.26 |
| GAGGACAUGGCCAGAUACUTT against Npy | inactive: 0.0419 |
| GCUCAGCUACAAUAUGUUCTT against ICRFP703B1614Q5.5 | inactive: 0.0403 |
| GGAGCACUGUCCUUAAACATT against Cxcl16 | inactive: -2.19 |
| GCCCAUCACUUAUAGUGGGTT against Usf2 | inactive: 0.227 |
| GGGCCAUGACAGAAUUCCATT against Eraf | inactive: -0.325 |
| GUGAGUUCGAAAAGGGAAUTT against LOC212285 | inactive: 1.09 |
| AACAGAUCUUCUCUGGUCCTT against Klra15 | inactive: -1.44 |
| GGCUCUAUGUUUAUAAUGATT against E030002O03Rik | inactive: -0.0955 |
| CCUGGGAGCCUAUUAUUCUTT against Ndufb10 | inactive: 0.601 |
| CCAGUGACACCUUAAAACCTT against Setbp1 | inactive: 1.27 |
| CCUAAUUUCCCAGCACUUUTT against BC018371 | inactive: 1.16 |
| GGAAAUCAAAGAGAAAGUUTT against Rassf3 | inactive: -0.363 |
| CGGAGAGGAUUUCAUCGAATT against Azgp1 | inactive: 0.0883 |

Reprinted at random: two records from the list.

| Sequence | z-score |
| --- | --- |
| GGGAAAGUCGUUGAAAUUUTT against Stx18 | inactive: -0.33 |
| GGAAAUCAAAGAGAAAGUUTT against Rassf3 | inactive: -0.363 |

(continued)

| Sequence | z-score |
| --- | --- |
| CCAGAUUAGGCUAAUAGAATT against Lrsam1 | inactive: -0.178 |
| GGCAACUGACUAUUUAUUATT against Kcnk13 | inactive: 0.135 |
| CCCAUGUGCGAUGAAACUUTT against Nudt3 | inactive: 0.243 |
| GCUCUUACAUAUCAAGCUUTT against 1700011C14Rik | inactive: 0.628 |
| GCGGACGAGUCUCUGUUAGTT against 1600012F09Rik | inactive: 0.719 |
| GGAAUUCAUGAAGUAUAACTT against LOC208943 | inactive: 0.78 |
| GCUUAUUUAAUGCAUCAGGTT against Avil | inactive: 0.326 |
| GGGAAGAGCUAGCACUGAATT against Phox2b | inactive: 0.0968 |
| CCGUUUCAGAUUCCUAUCATT against 4930524B15Rik | inactive: 1.28 |
| GCUUGAUUUUGAAUAACACTT against Tas2r116 | inactive: -0.498 |
| GGAAGAUUCCGACUUUAUUTT against Irs4 | inactive: 0.495 |
| GGGAAAACCUCUUCUGUGUTT against Olfr904 | inactive: 0.618 |
| CGAGAAGUACAAAAGGGAGTT against 1700039D13Rik | inactive: -0.24 |
| GGCUAAAGAGUCCUCGGUGTT against Serpina5 | inactive: -2.02 |
| GCUAAAGCAAUACAUAGUUTT against 5330421F07Rik | inactive: -0.823 |
| GGUCAUAAGAUUAGGGUCATT against Nmnat3 | inactive: -0.682 |
| GGCACCAAAAUCAAUGAAATT against Pcbp3 | inactive: -0.114 |
| GGCCAGUGGAGGAAUAUGATT against 1300017J02Rik | inactive: 1.34 |
| GCUACAUUCAAAUAUGACCTT against Cd207 | inactive: 0.0586 |
| GGUUCUGUUGUGUGAGGAGTT against Imap38 | inactive: 1.1 |
| CCGGAAGCUAUUGACCAUUTT against 5730466P16Rik | inactive: 1.09 |
